Results: the supplement of paper PMC8728848
The list shows a part of the results.

How the values were obtained:
Assay in all cases: glycan array binding signal (z-score within array); higher = stronger binding
Conditions in all cases: glycan notation: IUPAC condensed, linker removed
[1] = target: Neu5Ac(a2-6)GlcNAc(b1-4)GlcNAc(b1-4)GlcNAc
Summary of the method: (§1)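 Arrays were curated from the Consortium for Functional Glycomics database, 3228 in total, and kept only where the protein sequence was available. Binding is expressed as a within-array Z-score. This score was averaged across arrays of the same protein sequence at different concentrations or buffers and across linkers, and negative values can be read as non-binding.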

[2] = target: Neu5Ac(a2-8)Neu5Ac
Summary of the method: as §1

[3] = target: Neu5Ac(a2-8)Neu5Ac(a2-3)Gal(b1-3)GalNAc(b1-4)[Neu5Ac(a2-3)]Gal(b1-4)Glc
Summary of the method: as §1

[4] = target: Neu5Ac(a2-8)Neu5Ac(a2-3)Gal(b1-3)GalNAc(b1-4)[Neu5Ac(a2-8)Neu5Ac(a2-3)]Gal(b1-4)Glc
Summary of the method: as §1

[5] = target: Neu5Ac(a2-8)Neu5Ac(a2-3)Gal(b1-4)Glc
Summary of the method: as §1

[6] = target: Neu5Ac(a2-8)Neu5Ac(a2-3)Gal(b1-4)GlcNAc
Summary of the method: as §1

[7] = target: Neu5Ac(a2-8)Neu5Ac(a2-3)[Gal(b1-3)GalNAc(b1-4)]Gal(b1-4)Glc
Summary of the method: as §1

[8] = target: Neu5Ac(a2-8)Neu5Ac(a2-3)[GalNAc(b1-4)]Gal(b1-4)Glc
Summary of the method: as §1

[9] = target: Neu5Ac(a2-8)Neu5Ac(a2-8)Neu5Ac
Summary of the method: as §1

[10] = target: Neu5Ac(a2-8)Neu5Ac(a2-8)Neu5Ac(a2-3)Gal(b1-4)Glc
Summary of the method: as §1

[11] = target: Neu5Ac(a2-8)Neu5Ac(a2-8)Neu5Ac(a2-3)[Gal(b1-3)GalNAc(b1-4)]Gal(b1-4)Glc
Summary of the method: as §1

[12] = target: Neu5Ac(a2-8)Neu5Ac(a2-8)Neu5Ac(a2-3)[GalNAc(b1-4)]Gal(b1-4)Glc
Summary of the method: as §1

[13] = target: Neu5Ac(a2-8)Neu5Ac(a2-8)Neu5Ac(a2-8)Neu5Ac(a2-3)[GalNAc(b1-4)]Gal(b1-4)Glc
Summary of the method: as §1

[14] = target: Neu5Ac(a2-8)Neu5Gc(a2-3)Gal(b1-4)GlcNAc
Summary of the method: as §1

[15] = target: Neu5Ac(b2-6)Gal(b1-4)GlcNAc
Summary of the method: as §1

[16] = target: Neu5Ac(b2-6)GalNAc
Summary of the method: as §1

[17] = target: Neu5Ac9Ac(a2-3)Gal(b1-3)GlcNAc
Summary of the method: as §1

[18] = target: Neu5Ac9Ac(a2-3)Gal(b1-4)GlcNAc
Summary of the method: as §1

[19] = target: Neu5Ac9Ac(a2-6)Gal(b1-4)GlcNAc
Summary of the method: as §1

[20] = target: Neu5Gc(a2-3)Gal(b1-3)GlcNAc
Summary of the method: as §1

[21] = target: Neu5Gc(a2-3)Gal(b1-3)[Fuc(a1-4)]GlcNAc
Summary of the method: as §1

[22] = target: Neu5Gc(a2-3)Gal(b1-4)Glc
Summary of the method: as §1

[23] = target: Neu5Gc(a2-3)Gal(b1-4)GlcNAc
Summary of the method: as §1

[24] = target: Neu5Gc(a2-3)Gal(b1-4)GlcNAc(b1-3)Gal(b1-4)GlcNAc(b1-2)Man(a1-3)[Neu5Gc(a2-3)Gal(b1-4)GlcNAc(b1-3)Gal(b1-4)GlcNAc(b1-2)Man(a1-6)]Man(b1-4)GlcNAc(b1-4)GlcNAc
Summary of the method: as §1

[25] = target: Neu5Gc(a2-3)Gal(b1-4)[Fuc(a1-3)]GlcNAc
Summary of the method: as §1

[26] = target: Neu5Gc(a2-6)Gal(b1-4)GlcNAc
Summary of the method: as §1

[27] = target: Neu5Gc(a2-6)GalNAc
Summary of the method: as §1

[28] = target: Neu5Gc(a2-8)Neu5Ac(a2-3)Gal(b1-4)GlcNAc
Summary of the method: as §1

[29] = target: Neu5Gc(a2-8)Neu5Gc(a2-3)Gal(b1-4)GlcNAc
Summary of the method: as §1

[30] = target: Neu5Gc(a2-8)Neu5Gc(a2-3)Gal(b1-4)GlcNAc(b1-3)Gal(b1-4)GlcNAc
Summary of the method: as §1

[31] = target: Neu5Gc(a2-8)Neu5Gc(a2-6)Gal(b1-4)GlcNAc
Summary of the method: as §1

[32] = target: Neu5Gc(b2-6)Gal(b1-4)GlcNAc
Summary of the method: as §1

B1: EULS2 M1 (Oryza sativa) (protein)
chain: MVYCRANPNYAMTARNGAVVLAPANPKDEYQHWIKDMRWSTSIKDEEGYPAFALVNKATGQAIKHSLGQSHPVRLVPYNPEVMDESVLWTESRDVGNGFRCIRMVNNIYLNFDAFHGDKYHGGVRDGTDIVLWKLCEGDNQRWKIQPYYILEQKLISEEDLNSAVDHHHHHH
glycan array binding signal (z-score) [1]: -0.703
glycan array binding signal (z-score) [2]: 0.028
glycan array binding signal (z-score) [3]: -1
glycan array binding signal (z-score) [4]: -0.301
glycan array binding signal (z-score) [5]: -0.26
glycan array binding signal (z-score) [6]: 0.305
glycan array binding signal (z-score) [7]: -0.358
glycan array binding signal (z-score) [8]: -0.536
glycan array binding signal (z-score) [9]: -0.565
glycan array binding signal (z-score) [10]: -0.186
glycan array binding signal (z-score) [11]: 0.315
glycan array binding signal (z-score) [12]: -0.743
glycan array binding signal (z-score) [13]: -0.548
glycan array binding signal (z-score) [14]: -0.088
glycan array binding signal (z-score) [15]: 0.277
glycan array binding signal (z-score) [16]: -0.154
glycan array binding signal (z-score) [17]: -1.07
glycan array binding signal (z-score) [18]: 0.043
glycan array binding signal (z-score) [19]: -0.126
glycan array binding signal (z-score) [20]: -0.924
glycan array binding signal (z-score) [21]: -0.113
glycan array binding signal (z-score) [22]: 1.04
glycan array binding signal (z-score) [23]: -1.3
glycan array binding signal (z-score) [24]: 0.315
glycan array binding signal (z-score) [25]: -0.714
glycan array binding signal (z-score) [26]: 0.007
glycan array binding signal (z-score) [27]: -0.307
glycan array binding signal (z-score) [28]: -0.41
glycan array binding signal (z-score) [29]: -0.547
glycan array binding signal (z-score) [30]: -0.26
glycan array binding signal (z-score) [31]: -0.158
glycan array binding signal (z-score) [32]: -0.393
